Data: article PMC9743148 (Annals of oncology : official journal of the European …, 2020)

Columns and labels:
[1] = system: advanced solid tumors; settings: one responder with iCCA with disease progression on prior infigratinib (BGJ398)
[2] = system: FGFR1–4; settings: in vitro; cited from earlier work
[3] = system: FGFR mutants resistant to ATP-competitive inhibitors; settings: cell line experiments; cited from earlier work

## C=CC(=O)N1CC[C@H](n2nc(C#Cc3cc(OC)cc(OC)c3)c3c(N)ncnc32)C1 [futibatinib]
[1]
  Duration of futibatinib treatment: 15.6 months
[2]
  Concentrations inhibiting all four FGFR subtypes: subnanomolar
[3]
  Inhibition of FGFR mutants resistant to ATP-competitive inhibitors: nearly the same potency as wild-type FGFR
